Data: article PMC12570880
These are yes or no findings as the source states them, for the method shown. In cells and extracts the contact can be indirect. Some results given as binding are weak or reduced against the parent protein; the word gives no strength.

The chains behind the UniProt entries cited, without tags or fusion partners. Where a name states a change or a piece, a line headed by the entry shows the natural chain unless it says otherwise.
UniProt Q8TDY4: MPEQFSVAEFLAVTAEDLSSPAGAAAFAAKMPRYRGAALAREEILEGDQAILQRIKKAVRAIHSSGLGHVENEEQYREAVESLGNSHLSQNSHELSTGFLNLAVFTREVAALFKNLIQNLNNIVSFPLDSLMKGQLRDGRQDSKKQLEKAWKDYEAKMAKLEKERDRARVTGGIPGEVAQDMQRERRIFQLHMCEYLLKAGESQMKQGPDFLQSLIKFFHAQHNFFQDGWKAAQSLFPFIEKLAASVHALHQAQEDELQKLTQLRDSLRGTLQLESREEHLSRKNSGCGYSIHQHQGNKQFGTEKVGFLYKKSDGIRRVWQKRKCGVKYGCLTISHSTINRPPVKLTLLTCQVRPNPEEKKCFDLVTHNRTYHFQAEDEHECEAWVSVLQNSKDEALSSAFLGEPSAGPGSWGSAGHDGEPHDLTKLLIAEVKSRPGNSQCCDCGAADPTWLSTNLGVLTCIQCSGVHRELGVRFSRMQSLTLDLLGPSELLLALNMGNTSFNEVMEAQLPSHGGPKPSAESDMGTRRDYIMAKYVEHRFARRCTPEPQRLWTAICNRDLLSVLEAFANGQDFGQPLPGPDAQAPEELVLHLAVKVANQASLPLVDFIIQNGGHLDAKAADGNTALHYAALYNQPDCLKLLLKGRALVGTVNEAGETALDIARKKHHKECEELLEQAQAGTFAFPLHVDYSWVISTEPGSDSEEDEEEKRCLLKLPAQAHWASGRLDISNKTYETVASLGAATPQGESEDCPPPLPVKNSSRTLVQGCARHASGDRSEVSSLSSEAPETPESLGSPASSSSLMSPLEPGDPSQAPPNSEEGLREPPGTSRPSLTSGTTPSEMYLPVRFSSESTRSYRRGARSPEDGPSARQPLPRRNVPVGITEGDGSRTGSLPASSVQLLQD
UniProt P62330: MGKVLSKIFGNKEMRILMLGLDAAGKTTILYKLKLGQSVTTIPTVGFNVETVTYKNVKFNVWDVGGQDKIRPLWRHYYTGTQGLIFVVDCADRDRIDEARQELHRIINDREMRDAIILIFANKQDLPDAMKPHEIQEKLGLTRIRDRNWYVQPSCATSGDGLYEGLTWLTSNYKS

Legend:
FLAG-ACAP4 (HEK293T) [1] = target: FLAG-ACAP4 (HEK293T) (UniProt Q8TDY4); assay: co-IP; HEK293T co-transfected with HA-ARF6 and FLAG-ACAP4 and increasing amounts of HA-Acapin; lysed in IP buffer containing 100 uM GTPgammaS; FLAG IP and IB
FLAG-ACAP4 (HEK293T) [2] = target: FLAG-ACAP4 (HEK293T) (UniProt Q8TDY4); assay: co-IP; HEK293T transfected with constitutively active ARF6 Q67L, HA-Acapin and FLAG-ACAP4; with overexpression of HA-Acapin (Supplementary Figure S2A)

| binding (FLAG-ACAP4 (HEK293T) [1]) | binding (FLAG-ACAP4 (HEK293T) [2]) | Substance |
| --- | --- | --- |
| binds |  | HA-ARF6 (wild type) (from UniProt P62330 1-175) |
|  | binds | HA-ARF6^Q67L (constitutively active) (from UniProt P62330 1-175) |
